For series [1] the following is noted: 2 equivalents of receptor, 2 mM in CDCl3.
Series [2] in a line: Extraction of aqueous (Bu4N+)2HPO4 2− into CDCl3 receptor solution (NMR). The following applies: for % Bu4N^+ extracted from (Bu4N^+)2HPO4^2−: 2 equivalents of receptor, 2 mM in CDCl3.

Like-named read-outs stand apart in the source and are kept apart here.

This is an account of results in patent US20150157783A1, “METHOD TO SELECTIVELY BIND AND EXTRACT PHOSPHATE” (priority 2013, published 2015).

`FC(F)(F)c1cc(NC(=S)Nc2ccccc2-c2cc(-c3ccccc3NC(=S)Nc3cc(C(F)(F)F)cc(C(F)(F)F)c3)cc(-c3ccccc3NC(=S)Nc3cc(C(F)(F)F)cc(C(F)(F)F)c3)c2)cc(C(F)(F)F)c1` [2-tris, 1,3,5-tris[2-(3-(3,5-Trifluoromethylphenyl)thioureido)phenyl]benzene]: the “% Bu4N^+ extracted from Bu4N^+H2PO4^−” value in series [1] (C0(aq) 1.0 mM) is 30%; in series [1] (C0(aq) 10 mM), 55%. The “bound receptor in the organic layer” value in series [2] (100 μM dibasic phosphate in aqueous solution) is reported as 10%. The “% Bu4N^+ extracted from (Bu4N^+)2HPO4^2−” value in series [2] (C0(aq) 0.10 mM) amounted to 20%; in series [2] (C0(aq) 0.33 mM), 38%; in series [2] (C0(aq) 1.0 mM), 51%; in series [2] (C0(aq) 10 mM), 87%.
